PubChem BioAssay AID504744 | Drosophila RNAi Screening Center, 2011
Aim: 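Identify dsRNAs that increase or decrease phospho-dAkt after insulin treatment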 (primary screen). System: Drosophila Kc167 cells. Reagent: long dsRNA against Drosophila genes, 250 ng dsRNA per well of a 384-well plate. Timing: 3 days of knock-down, then overnight serum-free starvation before stimulation. Treatment: bovine insulin at 387 nM for 10 minutes after 12 h without serum. Read-out: 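Per-well phospho-dAkt level from an in-cell fluorescent antibody stain, divided by a DNA-dye signal; log2 residuals turned into z-scores that take cell number into account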. Hit rule: 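Under insulin, a gene counts as a hit if the average z-score of two replicates lies above 2.5 or below -2.5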.
The deposit covers about 23,000 reagents; shown is an unselected part of those with a known target gene and a result. Of all reagents, 98 (0.43%) got an active call. 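Only hit calls are given; the phospho-dAkt signals, z-scores and hit direction were not deposited.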 Reagent sequences are not shown.

Arr1 [SID104181659]: outcome = inactive
NimC1 [SID104181671]: outcome = inactive
CG4612 [SID104184270]: outcome = inactive
CG17834 [SID104182429]: outcome = inactive
CG32305 [SID104188406]: outcome = inactive
CG14710 [SID104194725]: outcome = inactive
Syngr [SID104185795]: outcome = inactive
fry [SID104188785]: outcome = inactive
fry [SID104189964]: outcome = inactive
fry [SID104190501]: outcome = inactive
fry [SID104190504]: outcome = inactive
tbrd-3 [SID104184087]: outcome = inactive
Bet5 [SID104194392]: outcome = inactive
eIF3a [SID104192131]: outcome = inactive
CG7627 [SID104182857]: outcome = inactive
NtR [SID104184420]: outcome = inactive
Fum2 [SID104198137]: outcome = inactive
CG3618 [SID104191538]: outcome = inactive
zip [SID104184517]: outcome = inactive
zip [SID104201943]: outcome = inactive
CG13442 [SID104186194]: outcome = inactive
Uro [SID104183261]: outcome = inactive
Tob [SID104200086]: outcome = inactive
